Measured values reported in paper PMC7145659.

The chains behind the UniProt entries cited, without tags or fusion partners.
UniProt P54578: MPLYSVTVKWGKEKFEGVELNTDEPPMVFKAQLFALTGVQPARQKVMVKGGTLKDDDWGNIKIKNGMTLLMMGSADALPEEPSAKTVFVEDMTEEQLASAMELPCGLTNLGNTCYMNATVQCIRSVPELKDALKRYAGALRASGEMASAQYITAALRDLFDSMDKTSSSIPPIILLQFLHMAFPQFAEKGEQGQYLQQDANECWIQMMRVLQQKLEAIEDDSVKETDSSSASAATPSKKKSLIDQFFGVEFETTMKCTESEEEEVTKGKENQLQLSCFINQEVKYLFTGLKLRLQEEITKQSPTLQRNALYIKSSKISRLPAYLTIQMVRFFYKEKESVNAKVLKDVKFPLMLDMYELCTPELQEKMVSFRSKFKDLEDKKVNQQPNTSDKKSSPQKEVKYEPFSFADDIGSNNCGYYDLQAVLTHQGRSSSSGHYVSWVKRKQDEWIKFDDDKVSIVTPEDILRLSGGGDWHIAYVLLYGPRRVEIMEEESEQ
UniProt P12956: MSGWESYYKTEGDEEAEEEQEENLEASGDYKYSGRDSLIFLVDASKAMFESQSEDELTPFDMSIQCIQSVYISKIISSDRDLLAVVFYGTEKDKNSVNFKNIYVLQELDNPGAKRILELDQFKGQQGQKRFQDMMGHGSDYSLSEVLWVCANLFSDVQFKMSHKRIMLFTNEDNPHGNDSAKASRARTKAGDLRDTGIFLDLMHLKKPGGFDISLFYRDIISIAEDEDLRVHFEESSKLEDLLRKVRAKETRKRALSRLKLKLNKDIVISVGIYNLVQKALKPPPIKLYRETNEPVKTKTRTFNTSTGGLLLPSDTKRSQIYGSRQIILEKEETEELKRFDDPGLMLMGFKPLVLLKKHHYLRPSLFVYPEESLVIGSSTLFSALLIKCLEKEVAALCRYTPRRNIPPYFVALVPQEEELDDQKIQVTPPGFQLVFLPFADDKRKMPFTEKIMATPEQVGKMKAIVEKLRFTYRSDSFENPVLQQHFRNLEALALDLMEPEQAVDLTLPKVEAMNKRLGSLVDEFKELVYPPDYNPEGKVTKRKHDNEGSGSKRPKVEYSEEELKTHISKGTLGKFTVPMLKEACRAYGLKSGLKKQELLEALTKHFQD
UniProt P13010: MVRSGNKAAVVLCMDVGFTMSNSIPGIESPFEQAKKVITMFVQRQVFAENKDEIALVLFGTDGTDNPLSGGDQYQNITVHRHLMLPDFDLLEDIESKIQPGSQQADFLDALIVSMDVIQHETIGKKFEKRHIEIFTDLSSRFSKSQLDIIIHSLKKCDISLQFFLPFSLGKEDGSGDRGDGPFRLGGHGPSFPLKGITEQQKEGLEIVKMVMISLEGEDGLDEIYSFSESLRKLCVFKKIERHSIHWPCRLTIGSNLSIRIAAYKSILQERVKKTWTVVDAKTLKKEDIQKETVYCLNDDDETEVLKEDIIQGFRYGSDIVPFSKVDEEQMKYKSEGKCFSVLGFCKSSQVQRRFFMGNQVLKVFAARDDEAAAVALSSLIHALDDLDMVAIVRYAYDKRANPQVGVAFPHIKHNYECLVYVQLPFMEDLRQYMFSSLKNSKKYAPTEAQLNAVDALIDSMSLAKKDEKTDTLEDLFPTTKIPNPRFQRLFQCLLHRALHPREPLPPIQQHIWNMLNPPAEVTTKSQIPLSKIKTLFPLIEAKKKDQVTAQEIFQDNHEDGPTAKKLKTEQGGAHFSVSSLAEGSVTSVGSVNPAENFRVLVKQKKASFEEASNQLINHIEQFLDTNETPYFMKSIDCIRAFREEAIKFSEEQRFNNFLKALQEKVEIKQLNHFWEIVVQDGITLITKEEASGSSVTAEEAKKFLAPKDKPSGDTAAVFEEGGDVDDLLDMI

Target: Flag-HA-USP14 (expressed in C4-2 cells) (human) (UniProt P54578)
Assay: affinity purification with mass spectrometry; Flag-HA-USP14 transiently expressed in C4-2 cells, immunoprecipitated with anti-Flag M2 magnetic beads, eluted with 3x Flag peptide, trypsin digest, LC-MS/MS; Mascot ion score >40

Row | binding | Substance
1 | binds | Ku70, endogenous (C4-2 cells) (from UniProt P12956 1-609)
2 | binds | Ku80, endogenous (C4-2 cells) (from UniProt P13010 1-732)

Results are given in words; binding and its absence hold for the method and conditions named. Binding seen in cells or lysates may run through a third protein. A yes stands for co-enrichment or nearness to the bait. Other partners may have been found.
